Test results from patent US5859191 (dated 1999).

Assay: general procedure: Fmoc solid-phase peptide synthesis; Rink Amide MBHA resin (0.55 mmol/g substitution); HBTU in 0.4M NMM/DMF; double coupling with HATU after the N-methylated residue
Conditions: whole synthesis; for crude HPLC purity / final HPLC purity: 215 nm; for crude HPLC purity / isolated yield / final HPLC purity: scale of the general procedure 0.1 mmol; for isolated yield: on resin substitution; for crude mass: scale 0.1 mmol

Row | Substance | crude HPLC purity [%] | isolated yield | crude mass [mg] | final HPLC purity [%]
1 | (N--Me)SFLLRN | 85.5 | 66.5% of theory | 102.4 | –
2 | S(N--Me)FLLRN | 63.6 | 32.7% | 79.5 | 91
3 | SFLLR(N--Me)N | 89.1 | 48.0% | 84 | >99
